Data taken from PubChem BioAssay AID758 (NMMLSC, 2007).
Out of some 190,000 compounds screened, about 110 (0.058%) were called active. Inconclusive results, whose numbers are uncertain, are shown with a selection of clear calls.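 How the source made its calls: active means fluorescent GTP binding to Rab7 beads changed by at least 20 points from the 100% baseline, either direction, mostly lower; inconclusive means compound itself probably fluorescent, or too few beads counted; inactive means the rest.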

test system: Rab7 GTPase wild type (dog), Bodipy-FL-GTP binding; assay: modulators of GTP binding to Rab7, primary screen, biochemical, wildtype, multiplex bead flow cytometry (AID 758); settings: GST-Rab7 beads, fluorescent GTP binding, at 10 µM, actives lie on both sides, untreated = 100%, excess cold GTP = 0%;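 further: median green fluorescence of bound Bodipy-FL-GTP per Rab7 bead population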

SMILES | GTP binding activity (percent of control)
CSc1nc(C)cc(SCC(=O)N/N=C/c2ccccc2)n1 | inconclusive: 91%
O=C(CSCc1ccc(Cl)cc1)Nc1ccc2c(c1)OCCO2 | inactive: 95%
CCc1nc(N)c(C#N)c(-c2ccc(F)cc2)c1C | inconclusive: 101%
Cc1nnc(SCc2ccccc2CSc2nnc(C)s2)s1 | inactive: 99%
CSc1nc2nc3c(cc2c(=O)n1-c1ccccc1)COC(C)(C)C3 | inconclusive: 98%
O=C(CN1CCCCC1)N1CCCc2ccccc21 | inactive: 100%
COc1cccc(-n2nnc3c(=O)n(CC(=O)N4CCCc5ccccc54)cnc32)c1 | inactive: 104%
COc1ccc(C2=Nn3c(nnc3-c3ccco3)SC2)cc1 | inconclusive: 89%
CCOc1cc(/C=C(/C#N)c2nc3ccccc3[nH]2)ccc1OCc1ccc(C(=O)O)o1 | inactive: 92%
CC(C)(C)N(NC(=O)Nc1ccc(Cl)c(Cl)c1)C(=O)c1ccccc1 | inconclusive: 109%
Cn1cccc1-c1cc(C(=O)N/N=C/c2cccc(O)c2)[nH]n1 | inactive: 96%
CCOc1ccc(C(=O)N/N=C(/C)C2C(=O)c3ccccc3C2=O)cc1 | inconclusive: 93%
Cc1ccc(NC(=O)CNCc2ccccn2)cc1S(=O)(=O)N(C)C | inactive: 101%
CC(C)(C)NC(=O)COc1ccc(CNCc2ccccn2)cc1 | inconclusive: 95%
COc1cc(-c2c(C#N)c(=O)[nH]c3c2c(C)nn3-c2ccccc2)ccc1O | inconclusive: 93%
COc1ccc(C2=Nc3ccc(Br)cc3C(c3ccccc3)N2CC(=O)NN)cc1 (stereo unspecified) | inconclusive: 95%
CSc1nc2c(c(-c3ccc(O)cc3)c1C#N)CCC2 | inconclusive: 88%
COc1ccccc1C(=O)Oc1ccc(N2C(=O)CCC2=O)cc1 | inconclusive: 96%
CN1C(=O)/C(=C2\SC(N)=NC2=O)c2ccccc21 | inconclusive: 87%
O=C(CCN1CCc2ccccc2C(c2ccccc2)C1)c1ccc2c(c1)OCCO2 (stereo unspecified) | inconclusive: 96%
C=C1CSc2nc(=O)c3c(C)c(C)sc3n21 | inconclusive: 90%
CC(Sc1nnc2ccccn12)C(N)=O (stereo unspecified) | inactive: 91%
CCOC(=O)N1CCC(NC(=O)c2cc(C(=O)Nc3cccc(OC)c3)ccc2CO)CC1 | inconclusive: 100%

SMILES | GTP binding activity (percent of control)
Cc1cccc(NC(=O)CN2C(=O)N/C(=C/c3ccc(C)s3)C2=O)c1 | inconclusive: 101%
COc1ccc(NC(=O)Cc2c(SC)c3ccccc3n2Cc2ccccc2)cc1 | inconclusive: 99%
CC1CCC2C(=O)N(c3ccc(NC4CCN(Cc5ccccc5)CC4)c([N+](=O)[O-])c3)C(=O)C2C1 (stereo unspecified) | inconclusive: 91%
CCOC(=O)C1(CC2CCCCO2)CCN(Cc2cc3ccccc3[nH]2)CC1 (stereo unspecified) | inactive: 101%
Cc1ccc(C(=O)CC2(O)C(=O)N(C)c3ccccc32)s1 (stereo unspecified) | inactive: 105%
COC(=O)c1ccccc1NC(=O)CN(Cc1ccccc1)S(C)(=O)=O | inconclusive: 102%
S=c1nc2ccccc2c2nc(-c3ccccc3)[nH]n12 | inconclusive: 94%
Cc1cc(C)c(C(=O)Cn2cnc3cc([N+](=O)[O-])ccc3c2=O)cc1C | inconclusive: 91%
O=C(Nc1ccc(C(=O)O)cc1)/C(=C\c1ccco1)NC(=O)c1ccccc1 | inconclusive: 94%
Cc1ccc(C(=C2C3C=CC2C2C(=O)NC(=O)C32)c2ccc(C)cc2)cc1 (stereo unspecified) | inconclusive: 106%
CC(CN1CCOCC1)OC(=O)c1ccccc1Br (stereo unspecified) | inconclusive: 101%
O=C(O)c1ccc(/C=N/NC(=O)c2cc(-c3cccs3)nc3ccccc23)cc1 | inconclusive: 93%
COc1cccc(/C=C/C(=O)c2cccc([N+](=O)[O-])c2)c1OC | inconclusive: 94%
Cc1csc(NC(=O)CSc2nnc3c4ccccc4nc(C(C)(C)C)n23)n1 | inactive: 98%
Cc1cccc(C(C)C)c1NC(=O)c1ccc(CN(c2ccccc2)S(=O)(=O)c2ccccc2)cc1 | inactive: 97%
O=C1CSC(=S)N1/N=C/c1ccc(O)c([N+](=O)[O-])c1 | inconclusive: 93%
COc1ccc(OC)c(CNC(=O)CCNC(=O)Cn2ccc3ccccc3c2=O)c1 | inconclusive: 103%
Fc1ccc(C2CC(c3cccs3)=NN2c2ccccc2)cc1 (stereo unspecified) | inconclusive: 90%
O=c1c2c(-c3ccccc3)csc2nc2c3ccccc3c(NCCN3CCOCC3)nn12 | active: 70%
O=C(Nc1ccccc1C(=O)N1CCOCC1)C1CCC(=O)N1C1CCCC1 (stereo unspecified) | inconclusive: 295%
Cc1ccnc(NC(=O)/C=C/c2cccs2)c1 | inconclusive: 173%
COCC(C)NC(=O)c1cc(-c2ccccc2OC)on1 (stereo unspecified) | inconclusive: 104%
O=C(/C=C/c1c(F)cccc1Cl)Nc1ncccn1 | inconclusive: 100%

22 entries from above, reformatted.
SMILES	GTP binding activity (percent of control)
CC(Sc1nnc2ccccn12)C(N)=O (stereo unspecified)	inactive: 91%
CCOC(=O)N1CCC(NC(=O)c2cc(C(=O)Nc3cccc(OC)c3)ccc2CO)CC1	inconclusive: 100%
Cc1cccc(NC(=O)CN2C(=O)N/C(=C/c3ccc(C)s3)C2=O)c1	inconclusive: 101%
COc1ccc(NC(=O)Cc2c(SC)c3ccccc3n2Cc2ccccc2)cc1	inconclusive: 99%
CC1CCC2C(=O)N(c3ccc(NC4CCN(Cc5ccccc5)CC4)c([N+](=O)[O-])c3)C(=O)C2C1 (stereo unspecified)	inconclusive: 91%
CCOC(=O)C1(CC2CCCCO2)CCN(Cc2cc3ccccc3[nH]2)CC1 (stereo unspecified)	inactive: 101%
Cc1ccc(C(=O)CC2(O)C(=O)N(C)c3ccccc32)s1 (stereo unspecified)	inactive: 105%
COC(=O)c1ccccc1NC(=O)CN(Cc1ccccc1)S(C)(=O)=O	inconclusive: 102%
Cc1cc(C)c(C(=O)Cn2cnc3cc([N+](=O)[O-])ccc3c2=O)cc1C	inconclusive: 91%
O=C(Nc1ccc(C(=O)O)cc1)/C(=C\c1ccco1)NC(=O)c1ccccc1	inconclusive: 94%
O=C(O)c1ccc(/C=N/NC(=O)c2cc(-c3cccs3)nc3ccccc23)cc1	inconclusive: 93%
COc1cccc(/C=C/C(=O)c2cccc([N+](=O)[O-])c2)c1OC	inconclusive: 94%
Cc1csc(NC(=O)CSc2nnc3c4ccccc4nc(C(C)(C)C)n23)n1	inactive: 98%
Cc1cccc(C(C)C)c1NC(=O)c1ccc(CN(c2ccccc2)S(=O)(=O)c2ccccc2)cc1	inactive: 97%
O=C1CSC(=S)N1/N=C/c1ccc(O)c([N+](=O)[O-])c1	inconclusive: 93%
COc1ccc(OC)c(CNC(=O)CCNC(=O)Cn2ccc3ccccc3c2=O)c1	inconclusive: 103%
Fc1ccc(C2CC(c3cccs3)=NN2c2ccccc2)cc1 (stereo unspecified)	inconclusive: 90%
O=c1c2c(-c3ccccc3)csc2nc2c3ccccc3c(NCCN3CCOCC3)nn12	active: 70%
O=C(Nc1ccccc1C(=O)N1CCOCC1)C1CCC(=O)N1C1CCCC1 (stereo unspecified)	inconclusive: 295%
Cc1ccnc(NC(=O)/C=C/c2cccs2)c1	inconclusive: 173%
COCC(C)NC(=O)c1cc(-c2ccccc2OC)on1 (stereo unspecified)	inconclusive: 104%
O=C(/C=C/c1c(F)cccc1Cl)Nc1ncccn1	inconclusive: 100%

Remaining list, next part

SMILES | GTP binding activity (percent of control)
Cc1nc(N/N=C/c2ccccc2)nc(N(C)c2ccccc2)c1[N+](=O)[O-] | inconclusive: 109%
O=C(NC1CCCCCC1)c1cc(S(=O)(=O)N2CCCCC2)ccc1N1CCOCC1 | inconclusive: 101%
O=C(O)c1ccc(N2C(=O)CC(N3CCC(c4nc5ccccc5[nH]4)CC3)C2=O)cc1 (stereo unspecified) | inconclusive: 94%
COC(=O)c1c(N2C(=O)[C@H]3[C@@H](C2=O)[C@]2(C(=O)Nc4ccccc42)N2CCC[C@@H]32)sc(C)c1C | inactive: 112%
COc1ccc(-c2cc(C(F)(F)F)n3nc(C(=O)NCc4ccco4)cc3n2)cc1OC | inconclusive: 93%
CCOC(=O)C(=O)N1CCC(C(=O)OC)CC1 | inactive: 108%
O=C1NC2(CCCCC2)C(=O)N1Cc1cccc(C(F)(F)F)c1 | inactive: 106%
Cc1cccc(C(=O)N(c2ccccn2)C(C)c2ccco2)c1 (stereo unspecified) | inconclusive: 94%
CCOCCCNC(=O)c1ccc(N2CCOCC2)c(NS(=O)(=O)c2ccc(OC)cc2)c1 | inconclusive: 95%
CCOC(=O)c1c(NC(=O)COC(=O)c2nc(Cl)ccc2Cl)sc2c1CCC2 | inactive: 100%
O=C(NC1CCCCCC1)C(=S)NCCc1ccccc1 | inconclusive: 93%
Cc1cc(Cl)c(S(=O)(=O)Nc2ccccn2)cc1OCC(N)=O | inactive: 102%
Cn1c2c(c(=O)n(C)c1=O)C(c1ccc(O)cc1)Nc1ccccc1O2 (stereo unspecified) | inconclusive: 94%
CCN1C(=O)/C(=C\c2ccc(-c3ccc([N+](=O)[O-])cc3OC)o2)SC1=Nc1cccc(C(=O)O)c1 | inconclusive: 86%
CCCCN(CCCC)c1nc(OC)nc(-n2nnc(C(C)=O)c2C)n1 | inconclusive: 95%
C=CCN(CC=C)CC(O)CN(c1cc([N+](=O)[O-])ccc1OC)S(=O)(=O)c1ccccc1 (stereo unspecified) | inactive: 100%
Cc1cc(C)nc(/N=C(\N)Nc2ccccc2-c2ccccc2)n1 | inconclusive: 99%
Cc1ccc(OCCC(=O)Nc2ccc(F)c(Cl)c2)cc1 | inconclusive: 94%
O=C(NCc1ccco1)C(=O)NCC(c1ccco1)N1CCOCC1 (stereo unspecified) | inactive: 109%
COc1ccc(S(=O)(=O)N2CCOCC2)cc1NC(=O)CSc1nnc(C2CC2)n1N | inactive: 95%
CCC(C)(NC(=O)c1ccc2c(c1)OCO2)C(=O)NC1CCCCC1 (stereo unspecified) | inactive: 93%
O=C(N/N=C/c1coc2ccccc2c1=O)c1cccc([N+](=O)[O-])c1 | inconclusive: 90%
CN(C)S(=O)(=O)c1ccc(NC(=O)COC(=O)C2COc3ccccc3O2)cc1 (stereo unspecified) | inactive: 92%

SMILES | GTP binding activity (percent of control)
CCOC(=O)c1ccc(NC(=O)N2CCN(Cc3ccccc3)CC2)cc1 | inactive: 102%
O=c1c2c(-c3ccccc3)csc2nc2n1CCC2 | inconclusive: 90%
O=S(=O)(Nc1cccc(-c2cn3ccsc3n2)c1)c1ccc(F)cc1 | inconclusive: 95%
CCN(CC)CCOC(=O)c1c(C)n(C)c2ccc(OC)cc12 | inconclusive: 96%
O=C(CSc1ncnc2ccccc12)NCC(=O)c1ccccc1 | inactive: 94%
CC(OC(=O)C1CC1)C(=O)Nc1cc(C(F)(F)F)ccc1Cl (stereo unspecified) | inactive: 93%
Cc1cccc(C)c1NC(=O)C(c1ccc([N+](=O)[O-])cc1)N(C)C(=O)c1ccccn1 (stereo unspecified) | inactive: 98%
Cn1cc(C=C2C(=O)CC(C)(C)CC2=O)c2ccccc21 | active: 20%
COC(=O)c1cc2nc(-c3ccc(OC)c(OC)c3)cc(C(F)(F)F)n2n1 | inactive: 101%
O=C(c1cccs1)n1nc(-c2ccccc2)nc1NCc1ccco1 | inconclusive: 98%
COc1cc(N=Nc2c(C)n(C)n(-c3ccccc3)c2=O)ccc1N | inactive: 108%
COc1ccccc1C(=O)Nc1nc(-c2ccc3c(c2)OCCO3)cs1 | inactive: 94%
CCN(CC)CCCNCC(=O)Nc1ccc2c(c1)CCC2 | inactive: 99%
COc1ccc(-c2ccc(SCc3ccccn3)nn2)cc1OC | inconclusive: 92%
CCOc1ccc(NC(=S)N2CCN(C/C=C/c3ccccc3)CC2)cc1 | inactive: 95%
COC(=O)C1=C(N)OC2=C(C(=O)CC(C)(C)C2)C1c1cccnc1 (stereo unspecified) | inconclusive: 101%
COc1ccc(N2C(=O)CC(Sc3nccc(C)n3)C2=O)cc1 (stereo unspecified) | inconclusive: 100%
NS(=O)(=O)c1ccc(N=Nc2c(=O)[nH]n3c(=O)c4c([nH]c23)CCCC4)cc1 | inconclusive: 92%
C=CCn1c(-c2cccn(Cc3ccc(Cl)cc3Cl)c2=O)n[nH]c1=S | inconclusive: 105%
CC(=O)Nc1ccc(S(=O)(=O)Nc2ccc(C)c([N+](=O)[O-])c2)cc1 | inconclusive: 88%
O=C1OC(c2ccccc2)=NC12CC2c1ccc(Cl)cc1 (stereo unspecified) | inconclusive: 101%
CCOc1ccc(CC(=O)NCC2(N3CCCCC3)CCCCC2)cc1 | inconclusive: 92%
